The test system of the test is L1210 leukemia ip in BDF1 mice, survival T/C. Kind of test: NCI In Vivo Anticancer Drug Screen. Data for tumor model L1210 Leukemia (intraperitoneal) in B6D2F1 (BDF1) mice. The note with it: T/C endpoint: mean survival time, higher T/C = longer survival.

The list does not hold the whole screen: it gathers some chemical classes. Other doses and runs of a compound may be missing. T/C: endpoint of the treated group in % of that of the vehicle group. Some entries give survivors of the animals treated and no T/C: the source holds a T/C of zero for them, seemingly a mark for toxic or unscored doses. Some doses without a T/C left all or most animals alive at the check, yet need not have been tolerated: the source hardly ever lists a survival T/C far under the control, and the zero likely stands for such cases as well. Survivors were counted at the toxicity check, usually on the fifth day, unless a day is given; later deaths do not show. Schedule codes are those of the source, read here as Q, the interval in days (D) or hours (H), X, the number of doses. For survival time, this PubChem deposit counts one and a half times the control or more as active, and values a quarter to a half above the control carry no call in these data; other NCI protocols may use other cut-offs. Some schedule codes hold Z or #, which are not explained here. Some doses were run more than once; the results are listed from low to high. Some T/C values are marked as having no survivor count here; that says nothing about deaths at the dose. Some T/C values are followed by the survivors on the day toxicity was checked, most often the fifth; where neither a count nor a note follows, no animal had died by that day.

Turning to `ClCC[N+]1(CCCl)CCCO1`, the T/C is 103 % of control (dose: 0.44 mg/kg/injection, schedule: Q01DX Z (ip), vehicle: methylcellulose (MC)); 109 % of control (dose: 0.98 mg/kg/injection, schedule: Q01DX Z (ip), vehicle: methylcellulose (MC)); 106 % of control (dose: 1.4 mg/kg/injection, schedule: Q01DX Z (ip), vehicle: methylcellulose (MC)); 117 % of control (dose: 2.2 mg/kg/injection, schedule: Q01DX Z (ip), vehicle: methylcellulose (MC)); 108 % of control (dose: 3.3 mg/kg/injection, schedule: Q01DX Z (ip), vehicle: methylcellulose (MC)); 99 and 117 % of control (dose: 5.0 mg/kg/injection, schedule: Q01DX Z (ip), vehicle: methylcellulose (MC)). The T/C is 123 % of control (dose: 5.32 mg/kg/injection, schedule: Q01DX Z (ip), vehicle: saline); 99 % of control (dose: 7.5 mg/kg/injection, schedule: Q01DX Z (ip), vehicle: methylcellulose (MC)); 120 % of control (dose: 8.0 mg/kg/injection, schedule: Q01DX Z (ip), vehicle: saline); 99 % of control (dose: 11.0 mg/kg/injection, schedule: Q01DX Z (ip), vehicle: methylcellulose (MC)); 106 % of control (dose: 12.0 mg/kg/injection, schedule: Q01DX Z (ip), vehicle: saline); 114 % of control (dose: 12.5 mg/kg/injection, schedule: Q01DX001 (ip), vehicle: saline). The T/C (dose: 16.5 mg/kg/injection, schedule: Q01DX Z (ip), vehicle: methylcellulose (MC)) is 105 % of control; the T/C (dose: 18.0 mg/kg/injection, schedule: Q01DX Z (ip), vehicle: saline) was 87 % of control; the T/C (dose: 25.0 mg/kg/injection, schedule: Q01DX001 (ip), vehicle: saline, evaluated on day 30) is 107 % of control; the T/C (dose: 25.0 mg/kg/injection, schedule: Q01DX001 (ip), vehicle: saline, run until all animals had died) is 101 % of control; the T/C (dose: 50.0 mg/kg/injection, schedule: Q01DX001 (ip), vehicle: saline) is 118 % of control; the T/C (dose: 50.0 mg/kg/injection, schedule: Q04DX003 (ip), vehicle: saline) was 130 % of control. The T/C (dose: 100.0 mg/kg/injection, schedule: Q01DX001 (ip), vehicle: saline) was 126 % of control; the T/C (dose: 100.0 mg/kg/injection, schedule: Q04DX003 (ip), vehicle: saline) is 93 % of control; the T/C (dose: 200.0 mg/kg/injection, schedule: Q01DX001 (ip), vehicle: saline) is 105 % of control.
For the compound `O=C(O)CN1CC([N+](=O)[O-])([N+](=O)[O-])CC([N+](=O)[O-])([N+](=O)[O-])C1`, the T/C (dose: 75.0 mg/kg/injection, schedule: Q01DX001 (ip), vehicle: carboxymethylcellulose (CMC)) was 96 % of control [survivor count not shown].
Consider `C[N+](C)(C)c1ccccc1.F[P-](F)(F)(F)(F)F`, for which the survivor count by setting is: (dose: 100.0 mg/kg/injection, schedule: Q04DX003 (ip), vehicle: saline with Tween-80) 0 of 6; (dose: 200.0 mg/kg/injection, schedule: Q04DX003 (ip), vehicle: saline with Tween-80) 1 of 6; (dose: 400.0 mg/kg/injection, schedule: Q04DX003 (ip), vehicle: saline with Tween-80) 0 of 6.
For `O=[N+]([O-])c1cc(S(=O)(=O)c2cc([N+](=O)[O-])c(Cl)c([N+](=O)[O-])c2)ccc1Cl`, the T/C is 90 % of control (dose: 100.0 mg/kg/injection, schedule: Q04DX002 (ip), vehicle: saline) and 90 % of control (dose: 200.0 mg/kg/injection, schedule: Q04DX002 (ip), vehicle: saline). In addition, the survivor count (dose: 400.0 mg/kg/injection, schedule: Q04DX002 (ip), vehicle: saline) was 2 of 3.
For `CCCCN(CCCC)P(=O)(Cl)N(CCCC)CCCC`, the T/C is 101 % of control (dose: 6.25 mg/kg/injection, schedule: Q01DX009 (ip), vehicle: DMSO) and 99 % of control [2 of 3 alive] (dose: 12.5 mg/kg/injection, schedule: Q01DX009 (ip), vehicle: DMSO). For the same compound, the survivor count is 1 of 3 (dose: 25.0 mg/kg/injection, schedule: Q01DX009 (ip), vehicle: DMSO); 0 of 3 (dose: 50.0 mg/kg/injection, schedule: Q01DX009 (ip), vehicle: DMSO); 0 of 3 (dose: 100.0 mg/kg/injection, schedule: Q01DX009 (ip), vehicle: DMSO); 0 of 3 (dose: 200.0 mg/kg/injection, schedule: Q01DX009 (ip), vehicle: DMSO).
In the case of `BrC1CN2CC(Br)CN2C1`, the T/C reads like this: (dose: 10.0 mg/kg/injection, schedule: Q01DX001 (ip), vehicle: saline) 98 % of control; (dose: 20.0 mg/kg/injection, schedule: Q01DX001 (ip), vehicle: saline) 101 % of control; (dose: 40.0 mg/kg/injection, schedule: Q01DX001 (ip), vehicle: saline) 107 % of control. Besides, the survivor count (dose: 80.0 mg/kg/injection, schedule: Q01DX001 (ip), vehicle: saline) is listed as 2 of 4.
For the compound `O=C1c2cc([N+](=O)[O-])ccc2-c2c1cc([N+](=O)[O-])cc2[N+](=O)[O-].Oc1cccc2ccc3ccc4ccccc4c3c12`, the T/C runs as follows: (dose: 50.0 mg/kg/injection, schedule: Q04DX002 (ip), vehicle: Klucel (hydroxypropylcellulose) (HPC)) 97 % of control; (dose: 100.0 mg/kg/injection, schedule: Q04DX002 (ip), vehicle: Klucel (hydroxypropylcellulose) (HPC)) 93 % of control; (dose: 200.0 mg/kg/injection, schedule: Q04DX002 (ip), vehicle: Klucel (hydroxypropylcellulose) (HPC)) 97 % of control.

The values are drawn from PubChem BioAssay AID248 (DTP/NCI, 2004).
